# Results are given in words; binding and its absence hold for the method and conditions named. Binding seen in cells or lysates may run through a third protein. For some assays here: Binding calls can cover weak binding; strength is not graded here. Tags and fused reporters may be left off the sequences shown.
# Tests used:
# [1] = molecular target: AcCaS-nLuc (kiwifruit (Actinidia chinensis var. chinensis)); assay: split reporter; luciferase complementation imaging (LCI); nLuc and cLuc constructs co-expressed in N. benthamiana leaves, 0.5 mM D-luciferin, imaged at 2 dpi
# [2] = molecular target: AcCaS^N121A-nLuc (kiwifruit (Actinidia chinensis var. chinensis)); assay: as above
binder,measurement,setting,value
"HopAU1-cLuc (protein, UniProt G9I6Y2 1-731) MKPVQSVSATQHYNPLTNIGQEASCSHEISGITQTEGTQATVATTQTAEQLTTARVRDITAAAKAIPDGTTVMSRKPEDLSQLQIAYLAAKNAPTHPDLYLKLCETFRVHDERHASEGHENICAKTMTARIDDDAIRVMAYASRGMHGGDVNNFLKFSFNSGLPNPISSALPSMLTFGASSFIGAVHGPWSGFGSALAFAAAKPFMAGGIQPAIVSLCDNIRGRNAPTVLAKGEVNDEIWLDAAAQTLEGLNEDTRRALTSFDDAVQAAITSVGIRDPKFLETDEGLELFFDHLSDTHFNGLREALEGVNNALQNTAPQTRESLRALEEASRPNMLEQRETTLKAEFSNLRQKEGNDWQRIPRSLRASGGTLTSGLSGLKKDEIPTRMNPALDRKSHFEGLNALASPAVGTSYAAAISLLQSPMAGLDERNKQKFNVKAAIVFYDAFTPEGKQRYLAGEEMDPDRDVDQAKLRGVFTSVSEYMVKSTQENLKQRQKVLGVEISEAGHALNALPENTSSISAPEIRAKVERYKALSADMSAVTQAIREGNPNFLTDLPDGEVKKAFDDCVNSGGMHVLENMTKVKYAKQGELKAQWTQKVSTDVSMFGLAGQFTPSIVNKLAAAICGGAGHIPNAVVGFLGAYSLAASFIGAQTQFAAINAKNNFREGNPKPTSLETFMRGNLAPVMQASANRHSQHALQGAEQAISTARQALNSSLGQNLRRRPSARTQQE",binding,[1],binds
same,binding,[2],no binding

# Source: PMC12682068
